From US10159726B2, “Peptides, combination of peptides and scaffolds for use in immunotherapeutic treatment of various cancers” (Immatics Biotechnologies GmbH, priority 2015, dated 2018) come the findings set out here.

For some assays here: Expression values are those of the mRNA of the gene that encodes the peptide; a gene is named only where it was looked up.

In data set [1] the test system is HLA-A*24 molecules of primary tumors. Nature of the data set: Identification and relative LC-MS quantitation of HLA-A*24 tumor-associated peptides presented on tissue samples (XPRESIDENT presentation profiles). The arrangement: species or system human. The note with it: for ENTITIES: Table 9A: selected HLA-A*24-binding tumor-associated peptides, cancer entities on which the peptide was found presented; for Peptide Presentation on cancer entities: Table 9B: selected HLA-A*24 peptides, presentation on additional cancer entities.

In data set [2] the test system is source genes of selected peptides. Nature of the data set: Expression profiling of source genes by in-house RNAseq, tumor vs normal tissues (target coverage). The arrangement: species or system human.

With “317: peptide found in SIAH1 (gene looked up) (VFDTSIAQLF; listed as Homo sapiens) [compound 317]”, the ENTITIES result in data set [1] is listed as “GB, RCC, HCC, NSCLC, GC”. For the same substance, the “Target coverage for source genes of selected peptides, GBC_CCC (N = 10)” value in data set [2] (gallbladder adenocarcinoma and cholangiocarcinoma, share of tumors with more than 1.5-fold higher expression than the highest-expressing relevant normal tissue, in-house RNAseq) is “I (<19% over-expression = I)”. Further, the “Target coverage for source genes of selected peptides, GC (N = 11)” value in data set [2] (gastric cancer, share of tumors with more than 1.5-fold higher expression than the highest-expressing relevant normal tissue, in-house RNAseq) is listed as “I (<19% over-expression = I)”. Moreover, in data set [2] (head and neck small cell carcinoma, share of tumors with more than 1.5-fold higher expression than the highest-expressing relevant normal tissue, in-house RNAseq), the “Target coverage for source genes of selected peptides, HNSCC (N = 10)” value is recorded as “I (<19% over-expression = I)”. Further, in data set [2] (melanoma, share of tumors with more than 1.5-fold higher expression than the highest-expressing relevant normal tissue, in-house RNAseq), the “Target coverage for source genes of selected peptides, MEL (N = 10)” value is on record as “I (<19% over-expression = I)”. Further, in data set [2] (non-Hodgkin lymphoma, share of tumors with more than 1.5-fold higher expression than the highest-expressing relevant normal tissue, in-house RNAseq), the “Target coverage for source genes of selected peptides, NHL (N = 10)” value is “I (<19% over-expression = I)”. Also, the “Target coverage for source genes of selected peptides, PCA (n = 10)” value in data set [2] (prostate cancer and benign prostate hyperplasia, share of tumors with more than 1.5-fold higher expression than the highest-expressing relevant normal tissue, in-house RNAseq) was “I (<19% over-expression = I)”. Besides, in data set [2] (urinary bladder cancer, share of tumors with more than 1.5-fold higher expression than the highest-expressing relevant normal tissue, in-house RNAseq), the “Target coverage for source genes of selected peptides, UBC (N = 10)” value is recorded as “I (<19% over-expression = I)”. Besides, the “Target coverage for source genes of selected peptides, UTC (N = 10)” value in data set [2] (uterine cancer, share of tumors with more than 1.5-fold higher expression than the highest-expressing relevant normal tissue, in-house RNAseq) is reported as “I (<19% over-expression = I)”. Consider “213: peptide found in SGK3 (gene looked up) (SYAPPSEDLFL; listed as Homo sapiens) [compound 213]”, for which the “Peptide Presentation on cancer entities” value in data set [1] is reported as “NSCLC”. In data set [2] (AML (N = 7), share of tumors with more than 1.5-fold higher expression than highest relevant normal tissue, in-house RNASeq), the “Target coverage, over-expression of source gene, AML” value is reported as “I (<19% over-expression = I)”. Moreover, in data set [2] (BRCA (N = 10), share of tumors with more than 1.5-fold higher expression than highest relevant normal tissue, in-house RNASeq), the “Target coverage, over-expression of source gene, BRCA” value was “II (20-49% = II)”. Moreover, the “Target coverage, over-expression of source gene, CLL” value in data set [2] (CLL (N = 10), share of tumors with more than 1.5-fold higher expression than highest relevant normal tissue, in-house RNASeq) was “I (<19% over-expression = I)”. For the same substance, the “Target coverage, over-expression of source gene, CRC” value in data set [2] (CRC (N = 20), share of tumors with more than 1.5-fold higher expression than highest relevant normal tissue, in-house RNASeq) was “I (<19% over-expression = I)”. The “Target coverage, over-expression of source gene, GB” value in data set [2] (GB (N = 24), share of tumors with more than 1.5-fold higher expression than highest relevant normal tissue, in-house RNASeq) is “I (<19% over-expression = I)”. In data set [2] (HCC (N = 15), share of tumors with more than 1.5-fold higher expression than highest relevant normal tissue, in-house RNASeq), the “Target coverage, over-expression of source gene, HCC” value is reported as “I (<19% over-expression = I)”. Besides, the “Target coverage, over-expression of source gene, OC” value in data set [2] (OC (N = 12), share of tumors with more than 1.5-fold higher expression than highest relevant normal tissue, in-house RNASeq) is “I (<19% over-expression = I)”. For the same substance, the “Target coverage, over-expression of source gene, OSCAR” value in data set [2] (OSCAR (N = 11), share of tumors with more than 1.5-fold higher expression than highest relevant normal tissue, in-house RNASeq) is reported as “I (<19% over-expression = I)”. For the same substance, the “Target coverage, over-expression of source gene, PC” value in data set [2] (PC (N = 26), share of tumors with more than 1.5-fold higher expression than highest relevant normal tissue, in-house RNASeq) is recorded as “I (<19% over-expression = I)”. Further, the “Target coverage, over-expression of source gene, RCC” value in data set [2] (RCC (N = 10), share of tumors with more than 1.5-fold higher expression than highest relevant normal tissue, in-house RNASeq) is “I (<19% over-expression = I)”. Moreover, in data set [2] (SCLC (N = 10), share of tumors with more than 1.5-fold higher expression than highest relevant normal tissue, in-house RNASeq), the “Target coverage, over-expression of source gene, SCLC” value was “I (<19% over-expression = I)”. In data set [2] (pNSCLC (N = 11), share of tumors with more than 1.5-fold higher expression than highest relevant normal tissue, in-house RNASeq), the “Target coverage, over-expression of source gene, pNSCLC” value is on record as “I (<19% over-expression = I)”. “116 (AYVIAVHLF; listed as Homo sapiens) [compound 116]”: in data set [1], the ENTITIES entry is reported as “GB, PCA, HCC, NSCLC”.

With “246 (KYLSVQLTL; listed as Homo sapiens) [compound 246]”, the “Peptide Presentation on cancer entities” value in data set [1] is recorded as “NSCLC”.

As to “299 (KYQYVLNEF; listed as Homo sapiens) [compound 299]”, the ENTITIES entry in data set [1] was “NSCLC, GC, GB”. For the substance “300 (TYPSQLPSL; listed as Homo sapiens) [compound 300]”, the ENTITIES entry in data set [1] is “CRC, GC”.

Take “158 (IYEETRGVLKVF; listed as Homo sapiens) [compound 158]”: the ENTITIES result in data set [1] is “HCC, NSCLC, GC”. On the same count and under the same terms, the entry for “149 (SYGTVSQI; listed as Homo sapiens) [compound 149]” is “HCC, NSCLC, GB”; for “228 (IYQYVADNF; listed as Homo sapiens) [compound 228]” it is “NSCLC”; for “281 (NYSPGLVSLIL; listed as Homo sapiens) [compound 281]” it is “NSCLC”. Consider “294 (RFPVQGTVTF; listed as Homo sapiens) [compound 294]”, for which the “Peptide Presentation on cancer entities” value in data set [1] is on record as “PCA”. Same read-out and setting: the entry for “203 (VYNVEVKNAEF; listed as Homo sapiens) [compound 203]” is “NSCLC”. As for “157 (DYIPASGFALF; listed as Homo sapiens) [compound 157]”, the ENTITIES result in data set [1] is recorded as “NSCLC, GB”. As to “112 (IYNFVESKL; listed as Homo sapiens) [compound 112]”, the ENTITIES entry in data set [1] is on record as “NSCLC, GC”.

On to “318 (TYSNSAFQYF; listed as Homo sapiens) [compound 318]”, for which, in data set [1], the ENTITIES entry is “GC, RCC, PCA, HCC, NSCLC”. As for “267 (SFLNIEKTEILF; listed as Homo sapiens) [compound 267]”, the “Peptide Presentation on cancer entities” value in data set [1] is reported as “HCC”.

As to “416 (AYSDGHFLF; listed as Homo sapiens) [compound 416]”, in data set [1], the ENTITIES result is “NSCLC, GC, RCC, GB, PCA, HCC”. With “231 (AFADVSVKF; listed as Homo sapiens) [compound 231]”, in data set [1], the “Peptide Presentation on cancer entities” value is recorded as “NSCLC”. Regarding “132 (RYPALFPVL; listed as Homo sapiens) [compound 132]”, in data set [1], the ENTITIES entry is “HCC, NSCLC, GC, GB, PCA” and the “Peptide Presentation on cancer entities” value is reported as “RCC”. On to “225 (TYTNTLERL; listed as Homo sapiens) [compound 225]”, for which the ENTITIES entry in data set [1] was “NSCLC”. Still for that read-out and setting: with “285: peptide found in TRPC4 (gene looked up) (VYVGDALLHAI; listed as Homo sapiens) [compound 285]” the entry was “PCA”. On to “292 (FYPQIINTF; listed as Homo sapiens) [compound 292]”, for which the “Peptide Presentation on cancer entities” value in data set [1] is reported as “NSCLC”. Still for that read-out and setting: with “208 (TYLEKIDGF; listed as Homo sapiens) [compound 208]” the entry was “NSCLC”.

“410 (RFLSGIINF; listed as Homo sapiens) [compound 410]”: the ENTITIES result in data set [1] is reported as “NSCLC, GC, GB, HCC”.

With “266 (KYTDWTEFL; listed as Homo sapiens) [compound 266]”, the ENTITIES result in data set [1] is “HCC, NSCLC, GC, GB, PCA”. With “184 (IYSVGAFENF; listed as Homo sapiens) [compound 184]”, the “Peptide Presentation on cancer entities” value in data set [1] is “NSCLC”.

As for “383 (RYKPGEPITF; listed as Homo sapiens) [compound 383]”, the ENTITIES result in data set [1] is reported as “GB, PCA, HCC, NSCLC”. Consider “247 (SFTKTSPNF; listed as Homo sapiens) [compound 247]”, for which, in data set [1], the “Peptide Presentation on cancer entities” value was “HCC”.

For “143 (KYIFQLNEI; listed as Homo sapiens) [compound 143]”, the ENTITIES entry in data set [1] is “GB, NSCLC”. Still for that read-out and setting: the entry for “288 (VYPDTVALTF; listed as Homo sapiens) [compound 288]” is “NSCLC, GC”; for “201 (GYNPNRVFF; listed as Homo sapiens) [compound 201]” it is “GB, NSCLC”. Still for that read-out and setting: the entry for “209 (AFIETPIPLF; listed as Homo sapiens) [compound 209]” is “NSCLC”.

For “302 (LYLPVHYGF; listed as Homo sapiens) [compound 302]”, the “Peptide Presentation on cancer entities” value in data set [1] is “NSCLC”. With “VYNEQIRDLL (listed as Homo sapiens) [SEQ ID NO: 354]”, in data set [1] (FIG. 1 presentation profile, shown are only samples where the peptide was found to be presented), the “number of cancer tissues on which the peptide was found presented” value turned out to be 13. In the case of “194 (VYQSLSNSL; listed as Homo sapiens) [compound 194]”, the ENTITIES entry in data set [1] is “NSCLC”. On the same count and under the same terms, with “170 (QYPFHVPLL; listed as Homo sapiens) [compound 170]” the entry was “GC, PCA, HCC, NSCLC”.

Take “381 (KYPASSSVF; listed as Homo sapiens) [compound 381]”: the “Peptide Presentation on cancer entities” value in data set [1] is reported as “RCC, NSCLC”. As to “178 (NYSSAVQKF; listed as Homo sapiens) [compound 178]”, the ENTITIES entry in data set [1] is reported as “PCA, HCC, NSCLC, GB”.

“379 (VFIAQGYTL; listed as Homo sapiens) [compound 379]”: in data set [1], the “Peptide Presentation on cancer entities” value is “NSCLC”.

In the case of “238 (SYLEKVRQL; listed as Homo sapiens) [compound 238]”, the ENTITIES entry in data set [1] is “NSCLC”.

As to “260 (VYMNVMTRL; listed as Homo sapiens) [compound 260]”, the ENTITIES entry in data set [1] is “NSCLC”.
